Positions count from the first letter of the chain named. These are yes or no findings as the source states them, for the method shown. Some results given as binding are weak or reduced against the parent protein; the word gives no strength.
B1: HC 1251_A06/LC 1275_C10 (antibody, V domains shown)
VH: QVQLVESGGGVVQPGRSLRLSCAASGFDFSSYGMHWVRQAPDKGLEWVAVIWDDGSDRYYADSVKGRFTISRDNSKNTLYLQMNSLRAEDTAVYYCARGGTRVLGAIHGTDVWGQGTTVTVSS
VL: DIQMTQSPSSLSASVGDRVTITCRASQGVSSWLAWYQQKPEKAPKSLIYSARYLQSGVPSRFSGSGSGTDFTLTISSLQPEDFATYYCQQYNLYPLTFGGGTKVEIK
B2: HC 1251_B08/LC 1275_C10 (antibody, V domains shown)
VH: QVQLVESGGGVVQPGRSLRLSCAASGFNFSDYGMHWVRQAPDKGLEWVAVIWYDGSISYYADSVKGRFTISRDNSKNTLYLQMNSLRAEDTAVYYCARGGTVEHGAVYGTDVWGQGATVTVSS
VL: B1 VL
B3: HC 1251_B09/LC 1275_C10 (antibody, V domains shown)
VH: B2 VH with I51T, I57R, S58E, V102L, E103V, V107L, T110N, A117T
VL: B1 VL

Biological target: CD74 from cynomolgus monkey, stably expressed on CHO cells (cynomolgus monkey)
Experiment: flow cytometry on CHO-cyno-CD74 cells, 100 nM antibody

| Binder | binding |
| --- | --- |
| B1 | binds |
| B2 | binds |
| B3 | binds |

— patent US20170253656A1
